Experimental data reported in PubChem BioAssay AID493014 (National Center for Advancing Translational Sciences (NCATS), 2011).
Some of the results follow. Shown are side measurements of this screen, not its main read-out; they come without a call. The list favours compounds with an active or inconclusive main result. Potencies come from curve fits of mixed quality, noted in brackets.

Assay: qHTS Assay to Find Inhibitors of Chronic Active B-Cell Receptor Signaling
Conditions: ABC-DLBCL IkBa-CBG/CBR reporter, luminescence ratio (green luciferase fused to IkBa over red control in TMD8 lymphoma cells), 4 h
Procedure, shortened: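 Concentration-response series (up to 46 uM) were applied to TMD8 dual-reporter cells for 4 h at 37C with doxycycline. Green/red ratio, after filter-overlap correction, defined %Activity; red signal alone was normalised to basal cells and zero luminescence.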

[1] = measured here: CBR red luminescence, cell number
[2] = measured here: IkBa-CBG green luminescence

COc1ccc(CCC(=O)N2c3ccccc3CC2C)cc1 (stereo not drawn)
AC50 [1]: 0.00461 µM [falling, full curve, poor fit]

COc1ccc(O)c(C(=O)c2cnn(-c3ccccn3)c2)c1
AC50 [1]: 3.16 µM [rising, partial curve, poor fit]

O=C(Oc1ccc(-c2ccccc2)cc1)N1CCOCC1
AC50 [1]: 29.1 µM [falling, single point]

Cc1cc(=O)n2c(nc3ccccc32)[nH]1
AC50 [1]: 8.2 µM [falling, partial curve, poor fit]

CC1CN(C(=O)c2cc([N+](=O)[O-])cc([N+](=O)[O-])c2)CC(C)O1 (stereo not drawn)
AC50 [1]: 4.47 µM [rising, single point]

O=C(c1ccc(Cl)c(S(=O)(=O)N2CCCCC2)c1)N1CCCCCC1
AC50 [1]: 3.98 µM [rising, full curve, poor fit]

O=C(CCN1C(=O)/C(=C/c2ccc3c(c2)OCO3)SC1=S)NNC(=O)c1cccnc1
AC50 [1]: 10 µM [falling, partial curve]

O=C(NCc1ccco1)c1sc2cccc(F)c2c1Cl
AC50 [1]: 3.66 µM [rising, full curve, poor fit]

CCOC(=O)COn1c(=O)c(-c2cc3ccccc3o2)[n+]([O-])c2ccccc21
AC50 [1]: 7.94 µM [falling, partial curve, poor fit]

CCN(CC)CCOC(=O)c1ccc(NC(=O)CCCN2C(=O)/C(=C\c3cccs3)SC2=S)cc1
AC50 [1]: 1.41 µM [falling, full curve]

C[C@@]12C(=O)Nc3cc(Cl)ccc3C(=O)N1[C@H]1c3ccccc3OC[C@@H]1[C@@H]2c1ccccc1
AC50 [1]: 1.64 µM [falling, full curve] | AC50 [2]: 2.31 µM [rising, full curve, poor fit]

Cc1ccc2c(c1)N(CC(=O)N(Cc1ccccn1)Cc1ccco1)C(=O)C(C(C)C)O2 (stereo not drawn)
AC50 [1]: 32.6 µM [falling, partial curve, poor fit]

CCN(CC)S(=O)(=O)c1cc(NC(=O)Cc2ccsc2)ccc1C
AC50 [1]: 35.5 µM [falling, single point]

COc1cccc(-c2cc(C(=O)Nc3cccnc3)c3ccccc3n2)c1
AC50 [1]: 8.91 µM [falling, partial curve, poor fit]

Cc1ccc(OCCC(=O)OCC(=O)NC(=O)NC2CCCCC2)cc1
AC50 [1]: 2.06 µM [falling, full curve]

COC(=O)C1=C(C)N(Cc2ccccc2)C(=NCc2cccc(Cl)c2)N[C@H]1c1cccc(F)c1
AC50 [1]: 11.2 µM [falling, partial curve] | AC50 [2]: 17.8 µM [rising, single point]

CCn1c(-c2cccc(Br)c2)n[nH]c1=S
AC50 [1]: 6.51 µM [rising, single point]

O=c1oc2ccccc2cc1-c1nc2ccccc2o1
AC50 [1]: 35.5 µM [falling, single point]

COc1ccccc1N1CCN(C(=O)C(=O)c2cn(CC(=O)N3CCOCC3)c3ccccc23)CC1
AC50 [1]: 14.1 µM [falling, single point]

Cc1cnc(NC(=O)Nc2ccccc2)c(C)n1
AC50 [1]: 14.1 µM [rising, single point]

O=C(CCCN1C(=O)/C(=C/c2ccccc2)SC1=S)N1CCOCC1
AC50 [1]: 2 µM [falling, partial curve] | AC50 [2]: 12.6 µM [falling, partial curve, poor fit]

COc1ccc(-c2nc(CCNC(=O)c3ccc(Br)o3)cs2)cc1
AC50 [1]: 9.2 µM [falling, partial curve]

CSc1ccccc1C(=O)NC1CCCCC1
AC50 [1]: 3.66 µM [rising, single point]

CC1Cc2ccccc2N1C(=O)COC(=O)c1ccc(O)cc1 (stereo not drawn)
AC50 [1]: 14.1 µM [falling, partial curve, poor fit]

COc1nc(N/N=C/c2ccc(-c3cccc([N+](=O)[O-])c3)o2)nc(N2CCOCC2)n1
AC50 [1]: 5.8 µM [rising, partial curve, poor fit]

c1ccc2[nH]c(CSc3nc4ccccc4s3)nc2c1
AC50 [1]: 11.2 µM [falling, single point]

COc1ccc(C2CC(=O)c3c(C)nc(N4CCN(c5ccccc5)CC4)nc3C2)cc1 (stereo not drawn)
AC50 [1]: 0.58 µM [falling, full curve, poor fit]

CN(C)C(=O)c1nc2ccc(Cl)cn2c1CNCc1cccc(OC(F)(F)F)c1
AC50 [1]: 0.0891 µM [rising, full curve, poor fit]

COC(=O)c1[nH]c2ccccc2c1NC(=O)CN1CCN(c2cccc(OC)c2)C(C)C1 (stereo not drawn)
AC50 [1]: 3.26 µM [rising, single point]

C=CCSc1nc2sc3c(c2c(=O)[nH]1)CC(C)(CC)OC3 (stereo not drawn)
AC50 [1]: 3.16 µM [rising, full curve, poor fit]

CCOc1ccc(-n2c(-c3ccc(Br)cc3)c[n+]3c2CCCCC3)cc1
AC50 [1]: 35.5 µM [falling, single point]

CCC(C)NC(=O)c1cc(-c2ccc3c(c2)OCO3)on1 (stereo not drawn)
AC50 [1]: 7.08 µM [falling, partial curve]

c1ccc2[nH]c(CSc3nc4ccccc4o3)nc2c1
AC50 [1]: 25.9 µM [falling, single point]

COc1ccc(C2NC(=O)C(C#N)=C(S)N2c2ccccc2)cc1OC (stereo not drawn)
AC50 [1]: 11.2 µM [rising, partial curve]

COc1ccc2c(c1)C(=NNC(=O)c1ccccn1)c1cc(OC)ccc1-2
AC50 [1]: 1.03 µM [falling, full curve, poor fit]

O=C(NC(=S)Nc1ccccc1F)C1CCCCC1
AC50 [1]: 1.12 µM [rising, full curve, poor fit]

CN(C(=O)c1ccc(NC(=O)Cc2ccc(NC(=O)C3CCN(C(=O)C4CC4)CC3)cc2)cc1)C1CC1
AC50 [1]: 20.6 µM [rising, single point]

O=[N+]([O-])c1cccc(-c2nnc3ccc4ccccc4n23)c1
AC50 [1]: 0.326 µM [rising, partial curve, poor fit]

COc1ccc2sc(-c3ccc(N(C)C)cc3)c(C#CC(C)(C)O)c2c1
AC50 [1]: 8.2 µM [rising, partial curve] | AC50 [2]: 18.4 µM [falling, single point]
